In general, AC50 refers to the concentration at which the activity in the assay is half-maximal.

This is one part of the list. These are further read-outs of the screen, such as a control signal, another cell line or another target. No call is given for them. Compounds called inactive in the main read-out are mostly missing here. Potencies come from curve fits of mixed quality, noted in brackets.

The assay in a line: qHTS Assay for Modulators of Lamin A Splicing. The note with it: HeLa LMNA splicing GFP/RFP minigene ratio, 48 h. In short, it runs like this:
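S3 HeLa stable clones carrying a lamin A-EGFP splicing minigene plus DsRed2 were seeded at 600 cells/well in Opti-MEM with 2% FBS, pin-dosed and incubated 48 h at 37°C. Acumen cytometry (488 nm) gave the GFP/RFP total-intensity ratio.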
A general note: In qHTS, concentration-response curves come from the screen itself.

[1] abbreviates: measured here: RFP viability control channel.
The mark [2] stands for this setting: measured here: GFP splicing reporter channel.

For the molecule `Cc1cc(C)c2ccc(N)nc2c1O`, under setting [1], the half-maximal activity concentration (AC50) was 17.8 µM [rising, single point].

In the case of `COc1ccccc1/C=C(/CC(=O)NCc1ccccc1)c1nc2ccccc2s1`, the AC50 under setting [1] is 15.8 µM [rising, single point].

For the molecule `CCOc1ccccc1N1CCN(C(=S)Nc2ccc(S(N)(=O)=O)cc2)CC1`, the AC50 under setting [1] is 12.6 µM [rising, partial curve].

Regarding `Cc1onc(-c2ccccc2)c1C(=O)NNC(=S)NC(=O)c1ccc(Br)cc1`, under setting [2], the AC50 is 3.98 µM [falling, partial curve, poor fit].

Take `Cc1cc2c(C)cc(=O)oc2c2c1NCCC2`: the AC50 under setting [1] was 11.2 µM [rising, single point].

Turning to `Cc1ccc(C)[n+](CC(=O)N2CCCCC2)c1`, under setting [1], the AC50 is 6.31 µM [rising, partial curve].

As for `COc1ccc(/C=N/NC(=O)C2c3ccccc3-c3ccccc32)cc1`, the AC50 under setting [1] is 35.5 µM [rising, single point].

Consider `CC(C)OCCCNC(=O)CCC(=O)NNc1nc2ccccc2c2nc(-c3ccccc3)nn12`, for which, under setting [1], the AC50 is 14.1 µM [rising, single point].

On to `CCc1ccc(OCC(=O)Nc2ccc(-c3nc4ccccc4o3)c(O)c2)cc1`, for which the AC50 under setting [1] was 5.62 µM [falling, single point].

Consider `CCCOC(=O)NC(CC)COC(=O)Nc1cccc(C)c1C` (stereo not given), for which, under setting [1], the AC50 was 35.5 µM [rising, single point].

Take `CCOC(=O)c1c(NC(=O)C2CCCN(S(=O)(=O)c3ccccc3)C2)sc2c1CCCC2` (stereo not given): the half-maximal activity concentration (AC50) was 3.98 µM [rising, partial curve] under setting [2] and 12.6 µM [rising, partial curve] under setting [1].

`CCCc1nnc(NC(=S)Nc2ccccc2)s1`: the AC50 under setting [1] is 11.2 µM [falling, partial curve].

As for `COc1ccc(C(=O)N/N=C/c2ccc(OC)c(CN3CCCc4ccccc43)c2)cc1`, under setting [1], the AC50 was 10 µM [rising, partial curve].

`Cc1ccn2c(NC(=O)C(C)(C)Oc3ccc(Cl)cc3)c(-c3cccs3)nc2c1`: under setting [1], the AC50 is 14.1 µM [rising, partial curve, poor fit].

Regarding `CCC1CN(C(=O)N2CCC(C(=O)NCCCc3ccccc3)CC2)c2ccccc2O1` (stereo not given), the AC50 is 31.6 µM [falling, single point] under setting [2] and 35.5 µM [falling, single point] under setting [1].

As to `O=C(Nc1ccc(Cl)c(S(=O)(=O)Nc2ccccc2Cl)c1)c1cccs1`, the AC50 under setting [1] was 28.2 µM [rising, single point].

As for `CCN1/C(=C/c2ccc3cc(C)ccc3[n+]2C)Sc2ccc3sccc3c21`, the AC50 under setting [1] was 20 µM [rising, single point].

For `CC(C)(C)NCC(O)COc1nsnc1N1CCOCC1` (stereo not given), the AC50 under setting [2] is 0.0631 µM [falling, full curve].

For `Cc1ccc(NC(=O)COC(=O)c2sccc2C)cc1S(=O)(=O)N1CCOCC1`, the AC50 under setting [1] is 2 µM [rising, full curve, poor fit].

Take `O=S(=O)(c1ccc(C2CCCCC2)cc1)N1CCCC1`: the AC50 by setting is: under setting [2], 15.8 µM [rising, single point]; under setting [1], 35.5 µM [rising, single point].

On to `CCOC(=O)C1=C(c2cccc(Oc3ccccc3)c2)NC(=S)NC1C` (stereo not given), for which the AC50 is 20 µM [rising, single point] under setting [2] and 31.6 µM [rising, single point] under setting [1].

For the molecule `CCCC(=O)Nc1ccc(C(=O)NNC(=S)NC(=O)c2ccc(Br)o2)cc1`, under setting [2], the AC50 was 1.58 µM [falling, partial curve, poor fit].

Regarding `CCNC(=S)Nc1ccc(N2CCCCC2)cc1`, the AC50 under setting [1] was 3.16 µM [falling, single point].

Consider `CC1(C)Cc2c(C#N)c(N3CCCC3)nc(-c3ccco3)c2CO1`, for which the AC50 under setting [1] is 17.8 µM [rising, partial curve, poor fit].

For the molecule `COc1cccc(-c2nnc(NC(=O)c3ccc(S(=O)(=O)N4CC(C)OC(C)C4)cc3)o2)c1` (stereo not given), the AC50 under setting [1] was 0.112 µM [rising, partial curve, poor fit].

In the case of `Cc1ccc(C2=NN=C(NC(=O)CSc3nnc4c5ccccc5n(C)c4n3)SC2)cc1`, the AC50 is, setting by setting: under setting [2], 12.6 µM [rising, partial curve]; under setting [1], 17.8 µM [rising, partial curve].

For `Cc1ccc(SCCC(=O)Nc2cccc(N(C)S(C)(=O)=O)c2)cc1`, the AC50 under setting [1] was 35.5 µM [rising, single point].

In the case of `Oc1ccccc1/C=N/Nc1ncc(Br)cn1`, under setting [1], the AC50 is 14.1 µM [rising, partial curve].

As to `COc1ccc(OCC(=O)N/N=C(\C)c2ccc(-n3ccnc3)cc2)cc1`, the AC50 under setting [1] is 14.1 µM [rising, partial curve].

With `CCCCN(CCCC)S(=O)(=O)c1ccc(C(=O)Nc2sc3c(c2C(N)=O)CCN(CC)C3)cc1`, the AC50 under setting [1] was 17.8 µM [falling, single point].

`CCOC(=O)c1nnn(-c2nonc2N)c1-c1ccc(F)cc1`: the AC50 under setting [1] is 1.26 µM [rising, partial curve].

As for `COc1cccc(C(=O)Nc2nc(-c3ccccc3)c(-c3ccccc3)o2)c1`, under setting [1], the AC50 is 25.1 µM [rising, single point].

In the case of `CCC(Sc1nc2ccccc2[nH]1)C(=O)Nc1ccc(NC(C)=O)cc1` (stereo not given), under setting [1], the AC50 is 1.12 µM [rising, single point].

Turning to `O=C1CCC(=O)N1c1ccc(CSc2nc3ccccc3[nH]2)cc1`, the AC50 is 11.2 µM [rising, single point] under setting [2] and 20 µM [rising, single point] under setting [1].

For `O=C(CN1C(=O)NC2(CCCCCC2)C1=O)N1CCC(Cc2ccccc2)CC1`, the AC50 was 14.1 µM [rising, single point] under setting [2] and 20 µM [rising, single point] under setting [1].

In the case of `Cc1cccc(N2CCN(C(=O)CCNC(=O)Cn3ccc4ccccc4c3=O)CC2)c1C`, the AC50 under setting [2] was 25.1 µM [rising, single point] and the AC50 under setting [1] was 22.4 µM [rising, single point].

With `Cc1ccc(OCc2ccc(-c3nc(C#N)c(N4CCN(c5cccc(Cl)c5)CC4)o3)o2)cc1`, the AC50 under setting [1] is 0.00891 µM [falling, full curve, poor fit].

Turning to `C[C@@H](CN(C)C)CN1c2ccccc2CCc2ccccc21`, the AC50 reads like this: under setting [2], 0.224 µM [falling, full curve]; under setting [1], 0.316 µM [falling, full curve, poor fit].

`O=C(N/N=C/c1ccccc1)c1cc(-c2ccc3c(c2)OCO3)n[nH]1`: the AC50 under setting [1] was 12.6 µM [rising, single point].

Take `CC(=O)c1c(C)[nH]c(C(=O)CSc2ncnc3sc(-c4ccccc4)cc23)c1C`: under setting [1], the AC50 was 12.6 µM [rising, partial curve].

For `COc1cc(NC(=O)Cn2nc(C(F)(F)F)c3c2CCCC3)cc(OC)c1OC`, the AC50 under setting [1] is 35.5 µM [rising, single point].

Turning to `Cc1nc2c([nH]1)c(=O)n(C)c(=O)n2Cc1ccco1`, under setting [1], the AC50 was 6.31 µM [falling, single point].

Regarding `Cc1occc1-c1nnc(SCC(=O)Nc2ccccn2)o1`, under setting [2], the AC50 was 12.6 µM [rising, single point].

For `CCn1ccnc1CN1CCN(CCC(C)C)C(CCO)C1` (stereo not given), under setting [1], the AC50 was 6.31 µM [falling, partial curve, poor fit].

For the molecule `COc1ccc(NC(=O)/C(Cl)=C(/Cl)S(=O)Cc2ccccc2Cl)cn1` (stereo not given), the AC50 under setting [2] is 0.708 µM [falling, full curve].

Turning to `Cc1ccc(S(=O)(=O)NC(CN2CCOCC2)=NCCNS(=O)(=O)c2ccccc2)cc1`, the AC50 under setting [1] is 3.16 µM [rising, single point].

Consider `Cc1c(Cl)cccc1NC(=S)NN`, for which the AC50 runs as follows: under setting [2], 0.112 µM [falling, full curve]; under setting [1], 0.0316 µM [falling, partial curve].

Consider `O=C(NNc1ccccc1Br)C(O)(c1cccc(C(F)(F)F)c1)c1cccc(C(F)(F)F)c1`, for which the AC50 is 6.31 µM [rising, partial curve] under setting [2] and 11.2 µM [rising, partial curve] under setting [1].

Take `O=C(CC1C(=O)NCCN1CC1CCCCC1)NCc1ccc(Cl)cc1` (stereo not given): the AC50 was 35.5 µM [falling, single point] under setting [2] and 35.5 µM [falling, single point] under setting [1].

As to `CN(NS(C)(=O)=O)c1ncc(C(F)(F)F)cc1Cl`, under setting [1], the AC50 is 10 µM [falling, partial curve].

On to `CC(NC(=O)C1CC12CCC2)c1ccccc1` (stereo not given), for which the AC50 under setting [1] was 0.00891 µM [falling, full curve, poor fit].

For `COc1cc2nc(CN(C)Cc3ccc(C(C)(C)C)cc3)[nH]c(=O)c2cc1OC`, under setting [1], the AC50 is 0.112 µM [falling, full curve, poor fit].

`CC1COc2ccccc2N1S(=O)(=O)c1ccccc1` (stereo not given): the AC50 under setting [2] was 0.794 µM [rising, full curve, poor fit].

On to `Cc1cc(C)nc(SCC(=O)Nc2ccc(N3CCOCC3)c(Cl)c2)n1`, for which the AC50 is 2 µM [rising, full curve, poor fit] under setting [2] and 3.55 µM [rising, full curve] under setting [1].

In the case of `CC1=C(C(=O)Nc2ccccc2Cl)C(c2cccs2)n2ncnc2N1` (stereo not given), under setting [1], the AC50 was 35.5 µM [rising, single point].

As for `COc1ccccc1NC(=O)c1cc(C(=O)O)ccc1C(=O)O`, under setting [1], the AC50 was 11.2 µM [rising, partial curve].

On to `O=[N+]([O-])c1ccc(O)c2ncccc12`, for which the AC50 under setting [2] was 3.98 µM [falling, full curve, poor fit] and the AC50 under setting [1] is 0.891 µM [falling, full curve].

Consider `O=C(CN1C2=NCCN2c2ccccc21)c1ccc(Br)s1`, for which the AC50 under setting [2] was 12.6 µM [rising, single point] and the concentration at half-maximal activity (AC50) under setting [1] is 22.4 µM [rising, single point].

For `Cc1ccc(NC(=S)N(CCCN2CCCC2)Cc2cccn2Cc2ccc(Cl)cc2)cc1`, the concentration at half-maximal activity (AC50) under setting [2] is 12.6 µM [falling, partial curve] and the AC50 under setting [1] is 35.5 µM [falling, single point].

These data come from PubChem BioAssay AID1487 (National Center for Advancing Translational Sciences (NCATS), 2009).
